Among the data in PubChem BioAssay AID1307 (SRMLSC, 2008) are max inhibition values, retold here.

Among all 1,200 compounds or so, fewer than 10 were called active.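 Rule for the calls: active = inhibition reaching a set limit at one or more tested concentrations; inactive = inhibition under that limit at every dose.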 The list shows a part of the results. Results with a measured potency or affinity are listed apart.

The assay can be described thus: yeast RAM network inhibitors, dose response, S. cerevisiae (AID 1307).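 Note: 0% = DMSO vehicle wells and 100% = 10 µM 1-NA-PP1 control; higher inhibition means more yeast growth since RAM block rescues cells from 5-FOA.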 The following applies: S. cerevisiae RAM network URA3 reporter, 5-FOA growth OD615, hits give high values, yeast express analog-sensitive mutant Cbk1 kinase; at 100 µM unless noted.
Turning to `CCCCOc1ccc(/C=C2/Sc3ccccc3C2=O)cc1`, the max inhibition is inactive: 4.33%.
The figure for `CCOC(=O)/C(=N/Nc1ccccc1)c1csc(Nc2ccccc2)n1` is inactive: 2.72%; for `COC(=O)c1sccc1-c1ccc(/C=N/OCc2c(Cl)cccc2Cl)o1` it is inactive: 4.32% [at 3.125 µM].
In the case of `C=CCn1c(SCCC)nc2sc3c(c2c1=O)CCc1ccccc1-3`, the max inhibition is inactive: 2.79% [at 50 µM].
The figure for `COc1ccc(Cc2nc(C(=O)Nc3ccc(F)cc3)cs2)cc1` is inactive: 2.74% [at 6.25 µM].
Turning to `O=C(/C=C/c1ccc(-c2ccccc2[N+](=O)[O-])o1)c1ccc(Br)cc1`, the max inhibition was inactive: 2.29% [at 12.5 µM].
Take `COC(=O)Cc1ccc(N(Cc2ccccc2F)S(=O)(=O)c2ccc(C)cc2)cc1`: the max inhibition was inactive: 3.54%.
The same measure for `Cc1cccc(COCC(Cc2ccccc2)N2CCN(C(=O)c3ccc(C(F)(F)F)cc3)CCC2=O)c1` (centres undefined): inactive: 3.28% [at 0.782 µM]; for `O=C(COC(=O)c1ccccc1C(=O)c1ccccc1)Nc1ccc(SC(F)F)cc1`: inactive: 1.63% [at 1.563 µM]; for `CNC(=S)N1N=C(c2ccc(C)cc2)CC1c1ccc(Br)cc1` (centres undefined): inactive: 1.58% [at 0.196 µM].
With `CCOC(=O)c1ccccc1NC(=O)c1c(O)c2ccccc2n(CC)c1=O`, the max inhibition is inactive: 1.76%.
The same measure for `Cc1cccc(-n2c(SCC(=O)Nc3cccc(S(=O)(=O)NC4=NCCCCC4)c3)nc3ccccc3c2=O)c1C`: inactive: 6.73%; for `CC(C)=CCC/C(C)=C/Cc1c(O)ccc(C(=O)/C=C/c2ccc(O)cc2)c1O`: inactive: 5.39%.
The figure for `CCCCNS(=O)(=O)c1ccc(NS(=O)(=O)c2c(C)cc(C)cc2C)cc1` is inactive: 2.98% [at 0.196 µM].
Regarding `CCCSc1nc(NCc2ccco2)c2c3c(sc2n1)COC(C)(C)C3`, the max inhibition was inactive: 3.51%.
For `Cc1ccc(S(=O)(=O)NCCC(c2ccccc2)c2ccco2)cc1` (centres undefined), the max inhibition is inactive: 2.13%.
The same measure for `O=C(CSCc1ccc(Br)cc1)Nc1ccc(S(=O)(=O)N2CCCCCC2)cc1`: inactive: 3.55% [at 1.563 µM]; for `CC(C)C[C@H](NC(=O)c1nc[nH]c1C(=O)NCc1ccccc1)C(=O)OCc1ccccc1`: inactive: 8.62%; for `Cc1ccccc1NS(=O)(=O)c1cc(C(=O)NCCSC2CCCCC2)ccc1C`: inactive: 4.22%.
The figure for `Cc1ccc(OCCn2cc(/C=C(\C#N)C(=O)NCC3CCCO3)c3ccccc32)cc1C` (centres undefined) is inactive: 8.12%.
With `COc1ccccc1OCCNS(=O)(=O)c1ccc2oc3ccccc3c2c1`, the max inhibition is inactive: 3.16% [at 50 µM].
The figure for `C/C(=N\OC(=O)c1ccc(Cl)cc1)c1sc(-c2ccccc2)nc1C` is inactive: 4.25%.
The figure for `CN(C)c1oc(-c2ccc(OCc3ccccc3)cc2)nc1C#N` is inactive: 3.6% [at 50 µM]; for `O=C1Nc2ccccc2/C1=N\N=C\C1=C(N2CCOCC2)C(=C\c2ccccc2)/CC1` it is inactive: 19.6%.
The figure for `CCC(CC)COC(=O)C(C#N)c1nc2ccccc2nc1N1CCOCC1` (centres undefined) is inactive: 5.41%; for `CCN(c1ccccc1)S(=O)(=O)c1ccc(NCC2COc3ccccc3O2)nc1` (centres undefined) it is inactive: 6.97%.
Consider `Cc1ccc(CSc2nc3sc(C)c(C)c3c(=O)n2Cc2ccco2)cc1`, for which the max inhibition is inactive: 4.96%.
On to `COC(=O)c1ccc(OC)c(CSc2nnc(-c3ccc(C(C)(C)C)cc3)o2)c1`, for which the max inhibition is inactive: 5.66%.
Turning to `Cc1ccccc1CSCCNC(=O)c1ccc(N(C)S(=O)(=O)c2ccccc2)cc1`, the max inhibition was inactive: 3.88%.
Regarding `Cc1ccc(-n2c(O)c(/C=N/c3ncn[nH]3)c3ccccc3c2=O)cc1`, the max inhibition is inactive: 10.6%.
The figure for `CC(C)c1ccc(/C=C(\c2nc3ccccc3[nH]2)S(=O)(=O)c2ccccc2)cc1` is inactive: 0.48% [at 12.5 µM].
In the case of `CCOC(=O)c1c(C)[nH]c(N=Nc2ccccc2C)c1C`, the max inhibition was inactive: 3.75%.
The same measure for `CSc1ccc(Cl)c(C(=O)NCCOc2cc(C(C)C)ccc2C)c1`: inactive: 4.59%.
With `Cc1cc(C)c(OCCNC(=O)c2ccccc2Sc2ccccc2C#N)c(C)c1`, the max inhibition was inactive: 3.53% [at 50 µM].
The figure for `Cc1ccc(-c2noc(CCC(=O)N3CCN(c4cccc(C(F)(F)F)c4)CC3)n2)cc1` is inactive: 4.28% [at 0.782 µM]; for `C=CCn1c(SCc2csc(C)n2)nc2sc3c(c2c1=O)CCCCC3` it is inactive: 3.66%.
The figure for `COc1cc(OC)cc(-c2nnc(SCc3cccc(C(=O)O)c3)o2)c1` is inactive: 3.7%; for `CCc1cc2c(=O)n(Cc3ccco3)c(SCc3c(C)noc3C)nc2s1` it is inactive: 4.93% [at 50 µM]; for `Cc1ccc(/C=C/C(=O)OCC(=O)Nc2ccccc2Sc2ccccc2)cc1` it is inactive: 4.49% [at 50 µM].
Regarding `O=C(C1CC1)N(Cc1ccco1)c1nc(-c2ccccc2)cs1`, the max inhibition is inactive: 1.18%.
Take `O=C(CCC(=O)OCCCC(F)(F)C(F)(F)F)Nc1ccc(Cl)cc1Cl`: the max inhibition is inactive: 2.26% [at 25 µM].
The same measure for `CCCCOC(=O)c1ccc(NC(=O)c2c(Cl)ccc(Cl)c2OC)cc1`: inactive: 2.55% [setting not given]; for `CSCCC(NS(=O)(=O)c1ccc2ccccc2c1)C(=O)OCC(=O)c1ccc(C(C)C)cc1` (centres undefined): inactive: 4.33%; for `CCSC1=N/C(=C\c2ccc(-c3ccccc3[N+](=O)[O-])o2)C(=O)S1`: inactive: 5.47% [at 25 µM].
With `COCCn1c(=NC(=O)c2sc3ccccc3c2Cl)sc2cc(S(N)(=O)=O)ccc21`, the max inhibition was inactive: 4.98% [at 50 µM].
For `CCOC(=O)/C(C#N)=C(C)/C=C1\Sc2ccccc2N1CC`, the max inhibition was inactive: 5.66%.
The figure for `S=C(NCCC(c1ccccc1)c1ccccc1)Nc1cccc(Cl)c1` is inactive: 6.71%.
With `COCCCNC(=O)c1ccc(Cn2c(=O)c3ccccc3n(Cc3ccc(C)cc3)c2=O)cc1`, the max inhibition was inactive: 1.8% [at 25 µM].
As for `CCCCCCOc1ccc(NC(=O)CC2C(=O)N(CC)C(=S)N2Cc2ccco2)cc1` (centres undefined), the max inhibition was inactive: 4.43% [at 25 µM].
The figure for `COc1cccc(C(=O)C2CN(c3ccccc3)CC2c2ccc(Cl)cc2)c1` (centres undefined) is inactive: 5.04% [at 50 µM]; for `CCOC(=O)C1=C(NC(=S)NC(=O)c2ccccc2)c2ccccc2CC1C(C)C` (centres undefined) it is inactive: 1.65%; for `CC1CCN(C(=S)c2ccc(-c3ccc(Cl)cc3Cl)o2)CC1` it is inactive: 6.95% [at 50 µM].
As to `CCOCCSc1nc2c(c(-c3cccs3)c1C#N)CC/C2=C/c1cccs1`, the max inhibition was inactive: 5.76% [at 0.196 µM].
On to `O=C(Nc1ccccc1Cc1ccccc1)c1oc2ccccc2c1COc1ccccc1`, for which the max inhibition is inactive: 3.76%.
The figure for `O=C(NCc1ccccc1)[C@H]1C[C@@H]1[C@H](NP(=O)(c1ccccc1)c1ccccc1)c1ccccc1` is inactive: 5.67%.
The same measure for `Cc1ccc2sc(NC(=O)c3ccc(N4C(=O)CCC4=O)cc3)nc2c1C`: inactive: 9.33%; for `CCOC(=O)/C(=C/c1ccc(N2CCC(c3ccccc3)=N2)cc1)C(C)=O`: inactive: 3.75%; for `CCOC(=O)c1c(NC(=O)CSc2nnc(Cc3ccccc3)o2)sc(C)c1C`: inactive: 4.8% [at 50 µM].
The figure for `Oc1c(Cl)cc(Cl)c(Cl)c1Cc1c(O)c(Cl)cc(Cl)c1Cl` is inactive: 3.42% [at 0.391 µM]; for `Cc1ccc(C(=O)/C=C/c2cn(CC(O)CN3CCOCC3)c3ccccc23)cc1` (centres undefined) it is inactive: 4.08% [at 50 µM]; for `CCCCC(=O)O[C@H]1CC[C@H]2[C@@H]3CCc4cc(O)ccc4[C@H]3CC[C@]12C` it is inactive: 4.49%.
With `C=CCO/N=C(/C)c1c(O)c(CC)c(-c2ccccc2)n(-c2ccccc2)c1=O`, the max inhibition is inactive: 2.56% [at 0.391 µM].
For `Cc1ccc(NN=C2c3ccccc3-c3ccccc32)cc1`, the max inhibition is inactive: 6.62% [at 50 µM].
On to `COC(=O)CCSc1cc([N+](=O)[O-])cc2c1c(C1OCCO1)nn2-c1ccccc1`, for which the max inhibition is inactive: 3.76%.
Turning to `O=S(=O)(c1ccccc1)N1CCN=C1SCc1ccc(Cl)c(Cl)c1`, the max inhibition is inactive: 1.93% [at 0.782 µM].
Regarding `Cc1ccc(S(=O)(=O)N2CCC(=O)N(C(COCc3cccc(C)c3)Cc3ccccc3)CC2)cc1` (centres undefined), the max inhibition was inactive: 1.88%.
With `Cc1ccc(N=Nc2c(C)[nH]n(-c3ccccc3)c2=O)cc1`, the max inhibition was inactive: 1.92% [at 50 µM].
In the case of `O=C(COC(=O)CC(c1ccccc1)c1ccccc1)NCc1ccc(Cl)cc1`, the max inhibition was inactive: 1.55% [at 0.196 µM].
The figure for `CCOC(=O)C1=C(N)OC2=C(C(=O)CC(C)(C)C2)C1c1ccc(C)s1` (centres undefined) is inactive: 2.43% [at 0.196 µM]; for `C=C(C)C1CC=C(C)/C(=N\NC(=S)Nc2ccc(C)cc2)C1` (centres undefined) it is inactive: 2.06% [at 50 µM]; for `C=CCSc1nnc(CCCCCN2C(=O)c3cccc4cccc(c34)C2=O)o1` it is inactive: 6.81%.
Take `CCCCN(CCCC)S(=O)(=O)c1ccc(NC(=O)c2cccs2)cc1`: the max inhibition is inactive: 1.28% [at 25 µM].
As for `Cc1ccc(NC(=O)CNC(=O)c2cccs2)cc1S(=O)(=O)Nc1ccc(Cl)cc1`, the max inhibition is inactive: 6.32%.
The figure for `CCN(CC)c1nc(SCCOC(=O)Nc2ccccc2)nc(N(CC)CC)n1` is inactive: 9.53%; for `CC(C)(C)OC(=O)NCCCCCNC(=O)c1[nH]cnc1C(=O)N[C@@H](Cc1ccccc1)C(=O)OCc1ccccc1` it is inactive: 6.61%.
On to `CCOC(=O)c1ccc(NC(=O)Nc2ccc3c4c(cccc24)C(=O)N3CC)cc1`, for which the max inhibition was inactive: 3.19%.
The figure for `CCSc1ccc(-c2nn(-c3ccccc3)cc2/C=C(/C#N)C(=O)NCCCOC)cc1` is inactive: 13%; for `O=C(Cn1cc(C(=O)c2ccco2)c2ccccc21)NC1CCCCC1` it is inactive: 3.76% [at 0.391 µM]; for `CCCC(=O)C1=C(O)C(C(=O)OC)C(C)(C)CC1=Nc1cccc2ccccc12` (centres undefined) it is inactive: 2.93%.
